No constants are given. Whether binding was seen depends on the method and setting. Binding seen in cells or lysates may run through a third protein. Some results given as binding are weak or reduced against the parent protein; the word gives no strength.

Chains of the proteins cited; added tags and fusions are not shown.
UniProt P10415: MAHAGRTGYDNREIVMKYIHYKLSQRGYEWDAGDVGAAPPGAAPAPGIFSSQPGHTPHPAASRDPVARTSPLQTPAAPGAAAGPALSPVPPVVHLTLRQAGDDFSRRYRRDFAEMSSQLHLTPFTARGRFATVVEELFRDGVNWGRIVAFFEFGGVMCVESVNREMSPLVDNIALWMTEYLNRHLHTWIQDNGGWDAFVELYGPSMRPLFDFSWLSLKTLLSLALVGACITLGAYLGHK
UniProt Q14457: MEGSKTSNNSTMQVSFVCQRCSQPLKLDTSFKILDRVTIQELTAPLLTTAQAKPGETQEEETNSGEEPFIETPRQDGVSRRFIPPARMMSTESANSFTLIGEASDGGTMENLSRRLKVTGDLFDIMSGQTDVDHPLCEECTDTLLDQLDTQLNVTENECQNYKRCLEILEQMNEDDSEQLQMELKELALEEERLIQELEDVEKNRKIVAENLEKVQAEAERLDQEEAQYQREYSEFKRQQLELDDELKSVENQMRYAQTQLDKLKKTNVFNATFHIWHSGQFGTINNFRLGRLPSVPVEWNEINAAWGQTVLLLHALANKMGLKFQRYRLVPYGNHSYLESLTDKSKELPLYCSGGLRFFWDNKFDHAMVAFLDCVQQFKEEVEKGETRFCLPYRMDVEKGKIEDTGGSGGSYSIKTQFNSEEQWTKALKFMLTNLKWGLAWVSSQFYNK

The target in the experiment is Bcl-2 (human (endogenous in DLD1 and SW480)) (UniProt P10415). Description: co-IP; endogenous proteins in lysates of DLD1 and SW480 cells transfected with NGFR overexpression or empty plasmid, NGFR shRNA or control plasmid, and treated with 5-FU; IP with Bcl-2 antibodies and Dynabeads Protein G, blot for Beclin-1, and the reverse with Beclin-1 antibodies, blot for Bcl-2.

For Beclin-1 (from UniProt Q14457 1-450), the binding entry was “binds”.

For the origin of these results see PMC8120287.
